# At least one compound was matched to its structure with a doubt left.
# Tested on: T4-2 cells
# Conditions: T4-2 cells reverted by IA 20 μM or 1.75 mM glucose, 3D lrECM; PEP 0.5 mM, ESCA 20 μM, pyruvate
# Protocol: HMT-3522 cells were cultured on tissue culture plastic (2D) and in 3D lrECM gels with H14 medium, a 1:1 mix of DMEM/F12 (UCSF Cell Culture Facility) supplemented with 250 ng/ml insulin, 10 μg/ml transferrin, 2.6 ng/ml sodium selenite, 0.1 nM β-estradiol, 1.4 μM hydrocortisone and 5 μg/ml prolactin but no serum. S1 cells were additionally supplemented with 10 ng/ml EGF. MDA-MB-231 and HCC70 cells were cultured in DMEM and RPMI1640, respectively, and were supplemented with 10% fetal bovine serum (FBS).
# For 3D lrECM cultures, S1 and T4-2 cells were seeded at 840,000 and 600,000 cells per cm3 respectively in lrECM gel (Cultrex), overlaid with H14 medium. MDA-MB-231 and HCC70 cells were seeded at 625,000 cell per cm3 and overlaid with H14 medium supplemented with 1% FBS. Cells were used for each assay after 10 days, unless otherwise indicated.
# Pieces of lrECM gel containing cell colonies were suspended in approximately the same volume of phosphate buffered saline (PBS) and directly spread on glass slides. After brief air-drying, colonies were fixed with 3.7% paraformaldehyde (PFA) in PBS at room temperature (RT) for 10 min, washed with PBS containing 0.1 mM glycine, and permeabilized with 1:1 methanol/acetone at −20° C. for 10 min. […]
smiles,measurement,value
CC(=O)C(=O)O [pyruvate],rescue of the malignant (disorganized) phenotype by supplementation,did not rescue the malignant phenotype
